This experiment concerns HEK293A TEAD-LUC reporter. The experiment is described as follows: TEAD-luciferase reporter activity (YAP activation), robust Z score vs plate; higher = stronger YAP/TEAD activation. Conditions: 24 h. (In general: A reporter such as luciferase makes a cellular process visible.)

We go through 31 compounds from the supplement of paper PMC10735217.

Structures can show the parent of a compound that is named as a salt. The list shows a part of the results. Single values are uncertain here, since repeats match poorly.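 The human kidney-derived cells carry a stably integrated construct of eight TEAD-binding elements driving luciferase, read by luminescence in a drug-repurposing library screen. A compound counts as a hit when its signal is more than five robust Z scores above the plate mean.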

For the compound `CC1(COc2ccc(CC3SC(=O)NC3=O)cc2)CCCCC1` (stereo unspecified) [ciglitazone], the TEAD-luciferase reporter activity was inactive: -0.56 (compound concentration: 200 nM), inactive: 1.1 (compound concentration: 2 uM) and active: 7.42 (compound concentration: 10 uM).
The matching figures for `Cc1ccc(C(=O)NC2CC2)cc1-n1ncc(C(=O)c2cccc(C#N)c2)c1N`: inactive: 1.22, inactive: -0.965 and inactive: -0.815.
As to `O=C(O)CCCC(=O)N1Cc2ccccc2CC2(CCCN2CC2CCCCC2)C1` (stereo unspecified), the TEAD-luciferase reporter activity was inactive: -1.32 (compound concentration: 200 nM) and inactive: 2.81 (compound concentration: 10 uM).
As to `O=C(CCn1cnc2c(O)ncnc21)Nc1ccc(C(=O)O)cc1` [leteprinim potassium], the TEAD-luciferase reporter activity is, setting by setting: (compound concentration: 200 nM) inactive: -1.81; (compound concentration: 2 uM) inactive: -0.397; (compound concentration: 10 uM) inactive: 2.06.
Taken in the same sequence, the figures for `CCCCOC(=O)[C@H](C)NP(=O)(Oc1cccc2ccccc12)OC(C)[C@H]1O[C@@H](n2ccc(=O)[nH]c2=O)[C@](C)(O)[C@@H]1O` (stereo partly specified) were inactive: 1.52, inactive: -0.612 and inactive: 2.14.
The matching figures for `O/N=C/c1cc[n+](COC[n+]2ccc(/C=N/O)cc2)cc1` [Obidoxime chloride]: inactive: -0.951, inactive: 2.11 and inactive: 3.82.
The matching figures for `CCOc1ccc(N=Nc2ccc(N)cc2N)cc1`: inactive: 2.13, inactive: -1.95 and inactive: -0.45.
Take `CS(=O)(=O)Nc1cccc(C(c2ccc(F)cc2)C(c2cccnc2)c2cccnc2)n1` (stereo unspecified): the TEAD-luciferase reporter activity runs as follows: (compound concentration: 200 nM) inactive: 0.137; (compound concentration: 2 uM) inactive: 0.517; (compound concentration: 10 uM) inactive: 0.602.
For the compound `O=C1CC2(CCCC2)CC(=O)N1CCCCN1CCN(c2ncccn2)CC1` [Buspar], the TEAD-luciferase reporter activity by setting is: (compound concentration: 200 nM) inactive: -0.604; (compound concentration: 10 uM) inactive: 0.078.
Turning to `O=C1CC2(CCCC2)CC(=O)N1CCCCN1CCN(c2ncccn2)CC1` [buspirone], the TEAD-luciferase reporter activity (compound concentration: 2 uM) is inactive: 1.43.
In the case of `O=C1NCc2ccccc2CC12CCCN2Cc1cc(O)cc(O)c1` (stereo unspecified), the TEAD-luciferase reporter activity is inactive: 0.72 (compound concentration: 200 nM) and active: 11.7 (compound concentration: 10 uM).
Regarding `COc1ccc2cc([C@H](C)C(=O)OCCCCO[N+](=O)[O-])ccc2c1` [Naproxcinod], the TEAD-luciferase reporter activity is inactive: -1.99 (compound concentration: 200 nM), inactive: 0.673 (compound concentration: 2 uM) and inactive: 2.16 (compound concentration: 10 uM).
For the compound `CCc1c2c(nc3ccc(OC(=O)N4CCC(N5CCCCC5)CC4)cc13)-c1cc3c(c(=O)n1C2)COC(=O)C3(O)CC` (stereo unspecified) [etirinotecan pegol], where the note is “compound concentration: 2 uM”, the TEAD-luciferase reporter activity is inactive: 0.469.
Regarding `CCc1c2c(nc3ccc(OC(=O)N4CCC(N5CCCCC5)CC4)cc13)-c1cc3c(c(=O)n1C2)COC(=O)C3(O)CC` (stereo unspecified), the TEAD-luciferase reporter activity was inactive: -1.57 (compound concentration: 200 nM) and inactive: 0.638 (compound concentration: 10 uM).
Taken in the same sequence, the figures for `CCC(=O)N1Cc2ccccc2CC2(CCCN2C)C1` (stereo unspecified) were inactive: 0.773 and inactive: -2.26.
Take `OCc1cncc(F)c1` [fluoronicotinyl alcohol]: the TEAD-luciferase reporter activity was inactive: -0.292 (compound concentration: 200 nM), inactive: -0.161 (compound concentration: 2 uM) and inactive: -0.749 (compound concentration: 10 uM).
Take `NC(=O)OC(CN1CCC(C(=O)c2ccc(F)cc2)CC1)c1ccccc1` (stereo unspecified): the TEAD-luciferase reporter activity (compound concentration: 200 nM) was inactive: -0.744, the TEAD-luciferase reporter activity (compound concentration: 2 uM) is inactive: -0.223 and the TEAD-luciferase reporter activity (compound concentration: 10 uM) is inactive: -1.48.
Regarding `CC(C)c1nc(CN(C)C(=O)N[C@@H](CCN2CCOCC2)C(=O)N[C@H](CC[C@H](Cc2ccccc2)NC(=O)OCc2cncs2)Cc2ccccc2)cs1` [Cobicistat], the TEAD-luciferase reporter activity (compound concentration: 2 uM) was inactive: 2.05.
On to `CC(C)c1nc(CN(C)C(=O)N[C@@H](CCN2CCOCC2)C(=O)N[C@H](CC[C@H](Cc2ccccc2)NC(=O)OCc2cncs2)Cc2ccccc2)cs1`, for which the TEAD-luciferase reporter activity is, setting by setting: (compound concentration: 200 nM) inactive: -0.996; (compound concentration: 10 uM) inactive: -1.05.
With `CC(C)(C)O/N=C(/c1cc(Br)c(F)cc1O)c1c(O)ccc[n+]1[O-]`, the TEAD-luciferase reporter activity reads like this: (compound concentration: 200 nM) inactive: -2.07; (compound concentration: 2 uM) inactive: -1.17; (compound concentration: 10 uM) inactive: -0.649.
Taken in the same sequence, the figures for `CC(C)=CCOc1cc(NC(=S)c2cscn2)ccc1Cl` were inactive: -0.516, inactive: 1.36 and inactive: -0.834.
For the compound `O=C(NC1CCN(c2nc3ncccc3o2)CC1)c1ccc(C(F)(F)F)cc1`, the TEAD-luciferase reporter activity (compound concentration: 200 nM) is inactive: -0.418 and the TEAD-luciferase reporter activity (compound concentration: 10 uM) was inactive: 2.92.
As to `N#Cc1ccnc(N2C(=O)CC[C@H]2C(=O)N(c2cncc(F)c2)C(C(=O)NC2CC(F)(F)C2)c2ccccc2Cl)c1` (stereo partly specified), the TEAD-luciferase reporter activity is, setting by setting: (compound concentration: 200 nM) inactive: -2.09; (compound concentration: 2 uM) inactive: -0.43; (compound concentration: 10 uM) inactive: 1.73.
Consider `CCOC(=O)COc1ccc2c(c1)C[C@@H](NC[C@H](O)c1cccc(Cl)c1)CC2` [Amibegron hydrochloride], for which the TEAD-luciferase reporter activity is inactive: -1.33 (compound concentration: 200 nM), inactive: -0.678 (compound concentration: 2 uM) and inactive: 0.405 (compound concentration: 10 uM).
As to `CC1OCC2(CCN(C)CC2)O1` (stereo unspecified), the TEAD-luciferase reporter activity (compound concentration: 200 nM) was inactive: -0.639 and the TEAD-luciferase reporter activity (compound concentration: 10 uM) is inactive: 0.226.
`CCCC(=O)Nc1nnc(S(N)(=O)=O)s1`: the TEAD-luciferase reporter activity is, setting by setting: (compound concentration: 200 nM) inactive: -0.639; (compound concentration: 2 uM) inactive: -0.703; (compound concentration: 10 uM) inactive: -0.17.
As to `CN(CCCN1c2ccccc2CCc2ccccc21)CC(=O)c1ccc(Cl)cc1` [lofepramine], the TEAD-luciferase reporter activity (compound concentration: 2 uM) was inactive: -2.79.
Turning to `CN(CCCN1c2ccccc2CCc2ccccc21)CC(=O)c1ccc(Cl)cc1`, the TEAD-luciferase reporter activity reads like this: (compound concentration: 200 nM) inactive: -0.475; (compound concentration: 10 uM) inactive: -1.48.
With `NC(=O)OCC(O)COc1ccc(Cl)cc1` (stereo unspecified) [Chlorphenesin carbamate], the TEAD-luciferase reporter activity is inactive: 4.13 (compound concentration: 200 nM), inactive: -1.3 (compound concentration: 2 uM) and inactive: 0.356 (compound concentration: 10 uM).
The matching figures for `CCCN1CCC(c2nc3c(C(N)=O)cccc3[nH]2)CC1`: inactive: -0.878, inactive: -1.66 and active: 8.09.
Turning to `CCN(CC)CCN(Cc1ccc(-c2ccc(C(F)(F)F)cc2)cc1)C(=O)Cn1cc(Cc2cnn(C)c2)c(=O)nc1SCc1ccc(F)cc1`, the TEAD-luciferase reporter activity (compound concentration: 200 nM) is inactive: -1.36, the TEAD-luciferase reporter activity (compound concentration: 2 uM) is inactive: 0.662 and the TEAD-luciferase reporter activity (compound concentration: 10 uM) is inactive: -0.345.
